US6307020A, “Intracellular antifreeze polypeptides and nucleic acids” (HSC Research and Development Ltd. Partnership, priority 1998, dated 2001)
At least one peptide structure holds a part that was inferred or is arguable (an end, a ring closure or a residue). Residues, ends and D or L forms follow the SMILES beside them.

How the values were obtained:
[1] = Antifreeze activity measured as thermal hysteresis with a Clifton Nanoliter Osmometer; type: physicochemical; settings: FIG. 15
Method: The preferred method of measuring the activity of a skin type AFP is to measure the thermal hysteresis (the difference between the melting and freezing temperatures) of an aqueous solution containing the AFP. This can be done by performing a serial dilution of the AFP-containing aqueous solution, followed by cooling the solution gradually and monitoring the freezing point of the solution. Typically, this is performed using commercially available equipment designed specifically for this purpose, such as nanoliter osmoineter. See, Kao et al. (1986) Can. J. Zool. 64:578-582. A preferred osmometer is the Clifton Nanoliter Osmoineter (Clifton Technical Physics, Hartford, N.Y.). Instructions for using the equipment to perform thermal hysteresis are available from the manufacturer. See alvo, Chakrabartty et al. (1989) J. Biol. Cheni. 264: 11313-11316, for a preferred procedure for measuring thermal hysteresis.
(§1) The activity of a skin-type AFP can be measured using a nanoliter osmometer. Antifreeze activity was measured as thermal hysteresis (the difference between the melting and freezing temperatures), essentially following the procedure of Chakrabartty et al. (1989) J. Biol. Chem. 264: 11313-11316. Proteins were dissolved in 0.1 M NH4 HCO3 and their concentrations were determined by duplicate amino acid analyses. Activity measurements were performed on a series of dilutions with concentrations ranging from 0.1 to 7.0 mM for each protein using a Clifton Nanoliter Osmometer (Clifton Technical Physics, Hartford, N.Y.). Prior to the series of measurements for each protein, measurements were made from 3 sample wells using buffer alone and their average gave the background hysteresis. For each dilution, measurements were made from 3 wells and the average was taken. The background hysteresis was then subtracted from this value in order to obtain the antifreeze activity.
as §1, with “Antifreeze” for “The activity of a skin-type AFP can be measured using a nanoliter osmometer. Antifreeze”, “(difference” for “(the difference”, “temperatures)” for “temperatures),”, “264, 11307-11312.” for “264: 11313-11316.”

[2] = Circular dichroism and thermal denaturation of liver and skin AFPs; type: physicochemical
Method: CD spectra were measured using a Jasco J-600 spectropolarimeter. A water-jacketed (0.1 cm) quartz cell was used. Concentrations of peptides were calculated from UV-absorbance at 230 nm (OD230 =6.1 mM/L peptide-bonds). The concentrations of peptides for CD measurement were between 0.1-0.2 mg/ml in 0.1M NH4 HCO3, pH 8.5. Thermal denaturation of the peptides were measured by varying temperatures from 0-60° C. with a 5° C. step gradient. After CD measurement at 60° C., the samples were cooled to 0° C. and the extent of refolding was determined. The mean residue ellipticity at a given wavelength [q]1 was expressed in degree cm^2 dmol^-1. Fraction helix was calculated as described by Greenfield and Fasman (1969) Biochemistry 8, 4108-4116, employing 222 nm instead of 208 nm: [formula]
The ellipticity [q]222^coil of each peptide in 6.0 M guanidine hydrochloride at 25° C. was assumed to represent 0% helix formation, and the ellipticity for [q]222^helix 100% helix formation was calculated from J. T. Yang et al. (1986) Methods in Enzymology 130, 208-269: [q]^n= [q]^.infin. (1-k/n); where n is the chain length and k is a wavelength-dependent factor (at 222 nm k=2.5 and [q].infin.=-37,400 degree cm^2 dmol^-1).

Row | SMILES | antifreeze activity of synthetic sAFP3 analogues compared with 1-IBM or 3-IBM peptide [1] | helicity of synthetic analogues as measured by CD, compared with 1-IBM peptide [2]
1 | CSCC[C@H](NC(C)=O)C(=O)N[C@@H](CC(=O)O)C(=O)N[C@@H](C)C(=O)N1CCC[C@H]1C(=O)N[C@@H](C)C(=O)N[C@@H](CCCCN)C(=O)N[C@@H](C)C(=O)N[C@@H](C)C(=O)N[C@@H](C)C(=O)N[C@@H](C)C(=O)N[C@H](C(=O)N[C@@H](C)C(=O)N[C@@H](C)C(=O)N[C@@H](C)C(=O)N[C@@H](C)C(=O)N[C@@H](CCCCN)C(=O)N[C@@H](C)C(=O)N[C@@H](C)C(=O)N[C@@H](C)C(=O)N[C@@H](CCC(=O)O)C(=O)N[C@@H](C)C(=O)N[C@H](C(=O)N[C@@H](C)C(=O)N[C@@H](C)C(=O)N[C@@H](C)C(=O)N[C@@H](C)C(=O)N[C@@H](C)C(=O)N[C@@H](CCCCN)C(=O)N[C@@H](C)C(=O)N[C@@H](C)C(=O)N[C@@H](C)C(=O)N[C@@H](C)C(=O)N[C@H](C(=O)N[C@@H](CCCCN)C(=O)N[C@@H](C)C(=O)N[C@@H](C)C(=O)N[C@@H](C)C(=O)N[C@@H](C)C(=O)N[C@@H](CCCNC(=N)N)C(=O)O)[C@@H](C)O)[C@@H](C)O)[C@@H](C)O [0-IBM] (Ac-MDAPAKAAAATAAAAKAAAEATAAAAAKAAAATKAAAAR-OH) | slightly higher than that of the 1-IBM peptide | 
2 | CSCC[C@H](NC(C)=O)C(=O)N[C@@H](CC(=O)O)C(=O)N[C@@H](C)C(=O)N1CCC[C@H]1C(=O)N[C@@H](C)C(=O)N[C@@H](CCCCN)C(=O)N[C@@H](C)C(=O)N[C@@H](C)C(=O)N[C@@H](C)C(=O)N[C@@H](C)C(=O)N[C@H](C(=O)N[C@@H](C)C(=O)N[C@@H](C)C(=O)N[C@@H](C)C(=O)N[C@@H](C)C(=O)N[C@@H](CCCCN)C(=O)N[C@@H](C)C(=O)N[C@@H](C)C(=O)N[C@@H](C)C(=O)N[C@@H](CCC(=O)O)C(=O)N[C@@H](CC(=O)O)C(=O)N[C@H](C(=O)N[C@@H](C)C(=O)N[C@@H](C)C(=O)N[C@@H](CCCCN)C(=O)N[C@@H](C)C(=O)N[C@@H](C)C(=O)N[C@@H](CCCCN)C(=O)N[C@@H](C)C(=O)N[C@@H](C)C(=O)N[C@@H](C)C(=O)N[C@@H](CC(=O)O)C(=O)N[C@H](C(=O)N[C@@H](CCCCN)C(=O)N[C@@H](C)C(=O)N[C@@H](CCCCN)C(=O)N[C@@H](C)C(=O)N[C@@H](C)C(=O)N[C@@H](CCCNC(=N)N)C(=O)O)[C@@H](C)O)[C@@H](C)O)[C@@H](C)O [2-IBM] (Ac-MDAPAKAAAATAAAAKAAAEDTAAKAAKAAADTKAKAAR-OH) | slightly less active than the 1-IBM peptide | less helical
3 | CC(=O)N[C@@H](C)C(=O)N[C@@H](C)C(=O)N[C@@H](C)C(=O)N[C@@H](C)C(=O)N[C@@H](C)C(=O)N[C@@H](CCCCN)C(=O)N[C@@H](C)C(=O)N[C@@H](C)C(=O)N[C@@H](C)C(=O)N[C@@H](CC(=O)O)C(=O)N[C@H](C(=O)N[C@@H](C)C(=O)N[C@@H](C)C(=O)N[C@@H](CCCCN)C(=O)N[C@@H](C)C(=O)N[C@@H](CCCCN)C(=O)N[C@@H](C)C(=O)N[C@@H](C)C(=O)N[C@@H](C)C(=O)N[C@@H](CCC(=O)O)C(=O)N[C@@H](CC(=O)O)C(=O)N[C@H](C(=O)N[C@@H](C)C(=O)N[C@@H](C)C(=O)N[C@@H](CCCCN)C(=O)N[C@@H](C)C(=O)N[C@@H](C)C(=O)N[C@@H](CCCCN)C(=O)N[C@@H](C)C(=O)N[C@@H](C)C(=O)N[C@@H](C)C(=O)N[C@@H](CC(=O)O)C(=O)N[C@H](C(=O)N[C@@H](CCCCN)C(=O)N[C@@H](C)C(=O)N[C@@H](CCCCN)C(=O)N[C@@H](C)C(=O)N[C@@H](C)C(=O)N[C@@H](CCCNC(=N)N)C(=O)O)[C@@H](C)O)[C@@H](C)O)[C@@H](C)O [521C] (Ac-AAAAAKAAADTAAKAKAAAEDTAAKAAKAAADTKAKAAR-OH) | approximately the same activity as the 3-IBM peptide | 
4 | CSCC[C@H](NC(C)=O)C(=O)N[C@@H](CC(=O)O)C(=O)N[C@@H](C)C(=O)N1CCC[C@H]1C(=O)N[C@@H](C)C(=O)N[C@@H](CCCCN)C(=O)N[C@@H](C)C(=O)N[C@@H](C)C(=O)N[C@@H](C)C(=O)N[C@@H](CC(=O)O)C(=O)N[C@H](C(=O)N[C@@H](C)C(=O)N[C@@H](C)C(=O)N[C@@H](CCCCN)C(=O)N[C@@H](C)C(=O)N[C@@H](CCCCN)C(=O)N[C@@H](C)C(=O)N[C@@H](C)C(=O)N[C@@H](C)C(=O)N[C@@H](CCC(=O)O)C(=O)N[C@@H](CC(=O)O)C(=O)N[C@H](C(=O)N[C@@H](C)C(=O)N[C@@H](C)C(=O)N[C@@H](CCCCN)C(=O)N[C@@H](C)C(=O)N[C@@H](C)C(=O)N[C@@H](CCCCN)C(=O)N[C@@H](C)C(=O)N[C@@H](C)C(=O)N[C@@H](C)C(=O)N[C@@H](CC(=O)O)C(=O)N[C@H](C(=O)N[C@@H](CCCCN)C(=O)N[C@@H](C)C(=O)N[C@@H](CCCCN)C(=O)N[C@@H](C)C(=O)N[C@@H](C)C(=O)N[C@@H](CCCNC(=N)N)C(=O)O)[C@@H](C)O)[C@@H](C)O)[C@@H](C)O [3-IBM] (Ac-MDAPAKAAADTAAKAKAAAEDTAAKAAKAAADTKAKAAR-OH) | slightly less active than the 1-IBM peptide | less helical
